Experimental data reported in article PMC11999606, “Dynein light chains 1 and 2 are auxiliary proteins of pH-sensitive Kir4.1 channels” (The Journal of Biological Chemistry, 2025).
Results are given in words; binding and its absence hold for the method and conditions named. Some results given as binding are weak or reduced against the parent protein; the word gives no strength. Sequences can lack the tags named with a protein.

Biological target: full-length Kir4.1, N-terminal tags cleaved off (UniProt P78508)
Test: cryo-EM structure; single-particle cryo-EM of purified full-length Kir4.1 (with copurified LC8) supplemented with diC8 PIP2; maps at 6.69 Å and 6.93 Å; rigid body fit only; both purified

B1: full-length Kir4.1, N-terminal tags cleaved off (natural protein, UniProt P78508 1-379, looked up)
chain: MTSVAKVYYSQTTQTESRPLMGPGIRRRRVLTKDGRSNVRMEHIADKRFLYLKDLWTTFIDMQWRYKLLLFSATFAGTWFLFGVVWYLVAVAHGDLLELDPPANHTPCVVQVHTLTGAFLFSLESQTTIGYGFRYISEECPLAIVLLIAQLVLTTILEIFITGTFLAKIARPKKRAETIRFSQHAVVASHNGKPCLMIRVANMRKSLLIGCQVTGKLLQTHQTKEGENIRLNQVNVTFQVDTASDSPFLILPLTFYHVVDETSPLKDLPLRSGEGDFELVLILSGTVESTSATCQVRTSYLPEEILWGYEFTPAISLSASGKYIADFSLFDQVVKVASPSGLRDSTVRYGDPEKLKLEESLREQAEKEGSALSVRISNV
notes: Kir4.1 (KCNJ10) inwardly rectifying potassium channel, full length; Purified as a tetramer that carries copurified endogenous LC8; also called KCNJ10; Kir4.1 WT; source: purified (FLAG resin, eluted by HRV 3C cleavage, Superose 6 SEC); not shown: FLAG, N-terminal, cleaved; GFP, N-terminal, cleaved
  binding: binds
